Taken from: PubChem BioAssay AID504764 (Drosophila RNAi Screening Center, 2011)
In all, the deposit lists about 22,000 reagents; shown is an unselected part of those with a known target gene and a result. In the full data, 403 (1.9%) got an active call. 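Unnormalised raw counts per well; ratio z-scores behind the hit calls and whether each hit raises or lowers signal are not deposited.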 A plus sign joins genes that one reagent is predicted to hit. Not given: the amount of reagent.

Aim: 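Knock-downs that raise or lower a Notch target reporter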 (primary screen)
System: Drosophila Kc167 cells
Reagents: long dsRNA against Drosophila genes
Duration: about 5 days (4 days dsRNA, then 24 h after transfection)
Challenge: transfection of constitutively active membrane-tethered Notch lacking the extracellular domain, read 24 h later
Detection: 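Light from a Notch-responsive E(spl)m3 luciferase reporter under active Notch, with control-promoter and no-Notch reporter wells to normalise; raw counts from paired wells a and b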
Reading the numbers: induced reporter light, run 1, well a and induced reporter light, run 1, well b: higher = more light from the Notch target reporter with active Notch; control promoter light, run 1, well a and control promoter light, run 1, well b: higher = more light from the viral control promoter (cell number, transfection, viability); uninduced reporter light, run 1, well a: higher = more light from the Notch target reporter without active Notch
Rule for the call: 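Wells with low control signal or poorly matching duplicates excluded; duplicates averaged; per source plate, z beyond ±2 for induced/control log2 ratio or beyond ±1.8 for induced/uninduced marks a hit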
Meaning of the calls: active = modifier hit (raised or lowered Notch signal); inactive = not a hit

target	PubChem SID	induced reporter light, run 1, well a	induced reporter light, run 1, well b	control promoter light, run 1, well a	control promoter light, run 1, well b	uninduced reporter light, run 1, well a	activity call
CalpC	SID104199665	83210	78510	99420	99525	11245	inactive
LpR2	SID104193518	1.74e5	2.13e5	1.76e5	1.95e5	13770	inactive
LpR2	SID104193520	2.09e5	1.92e5	1.93e5	2.18e5	15635	inactive
LpR2	SID104195447	1.58e5	2.04e5	2.22e5	2.09e5	13195	inactive
LpR2	SID104195450	1.13e5	1.07e5	65895	78720	13280	inactive
Mst57Da + alpha4GT2	SID104193524	2.14e5	2.13e5	2.12e5	2.37e5	18375	inactive
trp	SID104196880	2.03e5	1.85e5	2.56e5	2.22e5	15915	inactive
Adgf-B	SID104190360	1.86e5	1.69e5	1.98e5	1.92e5	7385	inactive
CG1421	SID104183499	44525	46110	41265	50620	3170	inactive
CG15464 (retired record)	SID104197839	1.28e5	1.18e5	2.55e5	2.46e5	9425	inactive

Next part (2 carried over from the part before).
target	PubChem SID	induced reporter light, run 1, well a	induced reporter light, run 1, well b	control promoter light, run 1, well a	control promoter light, run 1, well b	uninduced reporter light, run 1, well a	activity call
CG1421	SID104183499	44525	46110	41265	50620	3170	inactive
CG15464 (retired record)	SID104197839	1.28e5	1.18e5	2.55e5	2.46e5	9425	inactive
Smyd4-3	SID104186833	99325	1.36e5	1.07e5	86565	9920	inactive
CG4476	SID104190216	1.12e5	1.17e5	1.33e5	1.08e5	7940	inactive
CG9411	SID104199976	1.74e5	1.65e5	2.59e5	1.76e5	11350	inactive
CG6000	SID104195730	1.60e5	1.99e5	2.08e5	2.04e5	16235	inactive
bma	SID104189688	2.17e5	1.65e5	2.45e5	1.63e5	12070	inactive
bma	SID104189956	1.08e5	92210	1.57e5	96890	9710	inactive
hebe	SID104184984	56195	59190	93375	67035	3232	inactive
hebe	SID104186397	1.36e5	1.33e5	1.40e5	1.13e5	11350	inactive
Mgat4a	SID104189118	1.81e5	1.55e5	2.23e5	2.32e5	16455	inactive
Mgat4a	SID104190862	1.97e5	2.27e5	2.32e5	1.84e5	12655	inactive
